Experimental findings from the supplement of paper PMC6411743 are described below.

The chains behind the UniProt entries cited, without tags or fusion partners. Where a name states a change or a piece, a line headed by the entry shows the natural chain unless it says otherwise.
UniProt Q9HA77: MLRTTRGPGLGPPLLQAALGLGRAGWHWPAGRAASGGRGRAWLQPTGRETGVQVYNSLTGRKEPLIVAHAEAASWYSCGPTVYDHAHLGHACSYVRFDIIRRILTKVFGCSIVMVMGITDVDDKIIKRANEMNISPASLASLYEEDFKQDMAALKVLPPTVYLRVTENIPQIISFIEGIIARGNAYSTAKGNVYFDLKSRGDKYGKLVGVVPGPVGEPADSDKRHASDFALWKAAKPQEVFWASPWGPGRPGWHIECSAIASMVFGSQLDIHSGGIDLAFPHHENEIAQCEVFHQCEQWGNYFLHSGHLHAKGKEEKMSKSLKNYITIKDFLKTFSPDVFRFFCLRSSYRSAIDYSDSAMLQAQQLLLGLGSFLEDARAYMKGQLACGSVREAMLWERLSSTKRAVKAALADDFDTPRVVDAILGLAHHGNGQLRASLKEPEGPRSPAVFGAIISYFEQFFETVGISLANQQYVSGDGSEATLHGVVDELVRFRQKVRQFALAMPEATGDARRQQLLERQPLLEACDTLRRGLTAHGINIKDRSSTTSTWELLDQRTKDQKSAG
UniProt Q9H8H0: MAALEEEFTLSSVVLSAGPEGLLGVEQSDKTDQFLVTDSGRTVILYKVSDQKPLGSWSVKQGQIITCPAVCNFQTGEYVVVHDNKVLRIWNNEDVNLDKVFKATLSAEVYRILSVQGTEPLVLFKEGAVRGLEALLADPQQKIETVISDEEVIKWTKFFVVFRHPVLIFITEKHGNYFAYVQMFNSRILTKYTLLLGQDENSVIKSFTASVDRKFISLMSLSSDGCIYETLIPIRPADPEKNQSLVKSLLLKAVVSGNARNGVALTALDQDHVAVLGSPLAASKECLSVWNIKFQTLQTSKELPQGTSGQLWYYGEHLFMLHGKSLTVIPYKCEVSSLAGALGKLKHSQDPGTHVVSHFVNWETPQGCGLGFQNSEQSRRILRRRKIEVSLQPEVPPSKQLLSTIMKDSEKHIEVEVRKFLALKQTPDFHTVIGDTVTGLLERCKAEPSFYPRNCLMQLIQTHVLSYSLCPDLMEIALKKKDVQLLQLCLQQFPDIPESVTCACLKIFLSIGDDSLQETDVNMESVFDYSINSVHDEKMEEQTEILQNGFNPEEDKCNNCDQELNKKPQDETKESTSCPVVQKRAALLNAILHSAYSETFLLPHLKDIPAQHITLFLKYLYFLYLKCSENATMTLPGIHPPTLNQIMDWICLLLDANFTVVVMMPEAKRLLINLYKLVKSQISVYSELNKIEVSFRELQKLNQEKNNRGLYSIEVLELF
UniProt Q9HC52: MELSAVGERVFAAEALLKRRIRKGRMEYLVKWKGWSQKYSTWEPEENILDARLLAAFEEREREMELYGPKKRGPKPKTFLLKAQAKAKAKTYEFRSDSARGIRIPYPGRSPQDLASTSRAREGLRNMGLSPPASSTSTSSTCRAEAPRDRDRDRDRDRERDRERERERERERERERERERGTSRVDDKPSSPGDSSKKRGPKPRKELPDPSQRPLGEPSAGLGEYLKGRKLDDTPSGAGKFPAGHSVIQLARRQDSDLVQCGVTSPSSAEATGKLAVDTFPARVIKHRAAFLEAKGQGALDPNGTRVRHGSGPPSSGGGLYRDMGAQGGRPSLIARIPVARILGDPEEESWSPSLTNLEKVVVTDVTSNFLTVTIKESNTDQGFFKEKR
UniProt Q9HC07: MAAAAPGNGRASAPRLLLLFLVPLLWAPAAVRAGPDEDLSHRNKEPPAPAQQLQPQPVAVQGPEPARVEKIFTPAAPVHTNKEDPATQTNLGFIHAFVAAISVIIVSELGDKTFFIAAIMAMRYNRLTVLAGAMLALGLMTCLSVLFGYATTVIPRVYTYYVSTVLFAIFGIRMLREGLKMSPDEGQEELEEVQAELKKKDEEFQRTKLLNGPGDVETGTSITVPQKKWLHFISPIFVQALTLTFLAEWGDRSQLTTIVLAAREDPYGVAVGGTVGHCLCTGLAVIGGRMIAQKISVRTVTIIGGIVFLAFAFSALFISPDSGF
UniProt Q9H8U3: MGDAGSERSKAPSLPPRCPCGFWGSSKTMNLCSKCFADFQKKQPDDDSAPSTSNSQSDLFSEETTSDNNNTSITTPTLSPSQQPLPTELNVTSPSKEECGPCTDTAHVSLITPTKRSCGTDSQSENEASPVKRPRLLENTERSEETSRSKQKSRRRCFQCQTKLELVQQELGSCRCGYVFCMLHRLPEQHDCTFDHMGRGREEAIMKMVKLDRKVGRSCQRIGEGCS
UniProt Q9C0F1: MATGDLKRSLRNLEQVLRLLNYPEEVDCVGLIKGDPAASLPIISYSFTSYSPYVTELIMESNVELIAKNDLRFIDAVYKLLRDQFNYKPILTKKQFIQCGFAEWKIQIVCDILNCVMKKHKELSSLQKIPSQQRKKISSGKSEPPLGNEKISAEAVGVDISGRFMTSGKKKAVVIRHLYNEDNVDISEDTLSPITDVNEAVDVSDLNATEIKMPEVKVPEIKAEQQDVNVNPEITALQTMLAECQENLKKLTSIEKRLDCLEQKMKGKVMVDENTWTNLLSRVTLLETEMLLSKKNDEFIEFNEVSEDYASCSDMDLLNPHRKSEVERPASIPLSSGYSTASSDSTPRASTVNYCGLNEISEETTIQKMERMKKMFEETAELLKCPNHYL
UniProt Q9HAV7: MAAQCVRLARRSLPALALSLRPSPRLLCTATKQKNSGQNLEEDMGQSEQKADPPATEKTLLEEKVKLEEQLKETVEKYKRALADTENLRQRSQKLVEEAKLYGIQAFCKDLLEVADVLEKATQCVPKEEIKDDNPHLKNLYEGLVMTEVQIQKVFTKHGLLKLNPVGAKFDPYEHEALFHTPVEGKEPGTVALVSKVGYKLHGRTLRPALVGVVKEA
UniProt Q9HCE0: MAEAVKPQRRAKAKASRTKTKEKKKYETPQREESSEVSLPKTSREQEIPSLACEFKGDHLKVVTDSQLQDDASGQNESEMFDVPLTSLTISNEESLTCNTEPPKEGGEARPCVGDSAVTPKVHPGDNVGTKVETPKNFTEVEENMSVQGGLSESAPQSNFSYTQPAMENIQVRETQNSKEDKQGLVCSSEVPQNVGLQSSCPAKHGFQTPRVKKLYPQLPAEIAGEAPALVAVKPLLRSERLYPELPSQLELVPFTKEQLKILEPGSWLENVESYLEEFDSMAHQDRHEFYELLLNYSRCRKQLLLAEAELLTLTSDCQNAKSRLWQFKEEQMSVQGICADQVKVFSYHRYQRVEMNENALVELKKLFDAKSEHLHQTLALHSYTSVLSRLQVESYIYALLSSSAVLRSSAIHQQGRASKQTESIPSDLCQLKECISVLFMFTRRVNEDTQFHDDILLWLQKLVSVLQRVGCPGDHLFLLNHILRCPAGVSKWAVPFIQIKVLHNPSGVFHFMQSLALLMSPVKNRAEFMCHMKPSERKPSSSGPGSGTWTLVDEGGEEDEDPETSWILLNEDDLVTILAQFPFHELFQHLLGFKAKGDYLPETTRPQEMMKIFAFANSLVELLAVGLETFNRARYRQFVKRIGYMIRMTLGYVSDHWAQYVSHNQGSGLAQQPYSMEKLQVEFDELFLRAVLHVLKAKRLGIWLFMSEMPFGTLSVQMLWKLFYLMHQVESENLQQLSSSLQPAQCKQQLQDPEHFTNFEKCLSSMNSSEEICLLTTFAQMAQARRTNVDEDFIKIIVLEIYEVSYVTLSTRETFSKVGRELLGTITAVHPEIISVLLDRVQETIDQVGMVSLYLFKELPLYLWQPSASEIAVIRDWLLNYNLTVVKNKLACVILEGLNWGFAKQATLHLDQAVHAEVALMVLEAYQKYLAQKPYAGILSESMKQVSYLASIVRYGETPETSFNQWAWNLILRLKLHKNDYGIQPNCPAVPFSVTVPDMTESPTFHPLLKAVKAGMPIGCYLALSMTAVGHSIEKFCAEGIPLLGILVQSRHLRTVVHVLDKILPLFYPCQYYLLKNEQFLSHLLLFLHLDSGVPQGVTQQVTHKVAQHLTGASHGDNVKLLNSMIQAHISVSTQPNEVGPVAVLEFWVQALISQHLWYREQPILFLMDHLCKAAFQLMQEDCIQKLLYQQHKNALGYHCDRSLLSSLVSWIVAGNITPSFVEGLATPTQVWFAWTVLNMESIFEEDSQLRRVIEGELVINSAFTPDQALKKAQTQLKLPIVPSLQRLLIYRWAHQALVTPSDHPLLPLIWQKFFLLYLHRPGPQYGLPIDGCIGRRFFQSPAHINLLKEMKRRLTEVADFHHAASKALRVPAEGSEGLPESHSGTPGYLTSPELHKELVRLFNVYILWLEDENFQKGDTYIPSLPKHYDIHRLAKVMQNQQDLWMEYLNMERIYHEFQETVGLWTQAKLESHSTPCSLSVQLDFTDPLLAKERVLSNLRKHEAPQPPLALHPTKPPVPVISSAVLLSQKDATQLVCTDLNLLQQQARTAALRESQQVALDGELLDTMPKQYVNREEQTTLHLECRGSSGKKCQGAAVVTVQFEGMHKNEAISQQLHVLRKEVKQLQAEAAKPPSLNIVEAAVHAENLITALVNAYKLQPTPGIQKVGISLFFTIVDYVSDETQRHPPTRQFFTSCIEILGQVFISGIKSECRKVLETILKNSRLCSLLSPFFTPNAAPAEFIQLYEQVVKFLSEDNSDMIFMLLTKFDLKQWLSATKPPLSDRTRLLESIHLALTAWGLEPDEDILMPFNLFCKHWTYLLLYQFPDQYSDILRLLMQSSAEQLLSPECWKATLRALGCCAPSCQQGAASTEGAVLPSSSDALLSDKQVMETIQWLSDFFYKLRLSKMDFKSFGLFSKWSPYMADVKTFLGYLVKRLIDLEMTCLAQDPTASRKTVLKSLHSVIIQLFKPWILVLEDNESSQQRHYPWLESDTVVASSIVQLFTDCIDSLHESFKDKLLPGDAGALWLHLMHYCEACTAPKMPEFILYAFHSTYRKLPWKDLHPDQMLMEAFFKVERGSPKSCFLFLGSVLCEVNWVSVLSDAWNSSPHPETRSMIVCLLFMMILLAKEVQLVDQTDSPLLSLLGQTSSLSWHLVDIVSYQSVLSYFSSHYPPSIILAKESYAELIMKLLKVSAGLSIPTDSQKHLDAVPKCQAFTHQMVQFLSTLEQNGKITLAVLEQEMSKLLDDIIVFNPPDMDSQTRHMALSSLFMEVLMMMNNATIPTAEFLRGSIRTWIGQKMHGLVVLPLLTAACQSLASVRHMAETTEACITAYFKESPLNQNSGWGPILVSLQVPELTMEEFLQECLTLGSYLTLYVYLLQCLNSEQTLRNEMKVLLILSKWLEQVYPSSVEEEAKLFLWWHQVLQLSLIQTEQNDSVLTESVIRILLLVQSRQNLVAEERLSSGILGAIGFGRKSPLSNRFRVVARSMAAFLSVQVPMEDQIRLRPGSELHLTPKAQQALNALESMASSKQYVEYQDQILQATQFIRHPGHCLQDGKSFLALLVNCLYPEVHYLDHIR
UniProt Q9GZR1: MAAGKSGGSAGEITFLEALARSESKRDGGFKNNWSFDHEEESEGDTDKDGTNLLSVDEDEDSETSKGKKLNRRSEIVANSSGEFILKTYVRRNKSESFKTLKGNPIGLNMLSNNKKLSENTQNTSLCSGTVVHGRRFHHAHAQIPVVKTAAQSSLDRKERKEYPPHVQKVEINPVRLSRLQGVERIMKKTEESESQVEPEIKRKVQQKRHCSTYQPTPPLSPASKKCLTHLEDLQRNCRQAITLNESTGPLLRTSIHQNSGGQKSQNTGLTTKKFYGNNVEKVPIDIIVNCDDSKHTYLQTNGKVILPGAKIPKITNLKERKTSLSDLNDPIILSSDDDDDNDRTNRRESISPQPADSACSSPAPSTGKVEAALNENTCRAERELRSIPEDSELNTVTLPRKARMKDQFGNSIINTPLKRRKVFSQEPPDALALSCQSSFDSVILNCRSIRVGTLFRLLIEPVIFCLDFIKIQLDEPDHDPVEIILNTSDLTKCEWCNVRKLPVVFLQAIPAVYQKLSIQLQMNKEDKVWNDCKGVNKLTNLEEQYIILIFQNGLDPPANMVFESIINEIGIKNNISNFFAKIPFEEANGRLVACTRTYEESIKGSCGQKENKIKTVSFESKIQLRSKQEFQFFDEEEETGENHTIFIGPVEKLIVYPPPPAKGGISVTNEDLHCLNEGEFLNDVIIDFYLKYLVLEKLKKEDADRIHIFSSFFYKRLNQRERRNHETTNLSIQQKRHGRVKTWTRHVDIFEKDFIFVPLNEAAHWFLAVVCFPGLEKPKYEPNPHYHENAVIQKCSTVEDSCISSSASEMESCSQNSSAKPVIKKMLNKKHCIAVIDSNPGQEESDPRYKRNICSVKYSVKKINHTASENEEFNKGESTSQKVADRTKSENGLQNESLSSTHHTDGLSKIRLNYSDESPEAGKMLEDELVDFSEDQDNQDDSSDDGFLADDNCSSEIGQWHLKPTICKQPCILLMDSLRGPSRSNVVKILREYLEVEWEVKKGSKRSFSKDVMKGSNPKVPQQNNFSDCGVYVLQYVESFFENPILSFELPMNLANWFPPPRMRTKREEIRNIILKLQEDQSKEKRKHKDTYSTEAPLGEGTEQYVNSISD

Compound in this assay: Nc1ncnc2c1ncn2[C@@H]1O[C@H](COP(=O)(O)OP(=O)(O)OP(=O)(O)O)[C@@H](O)[C@H]1O [adenosine triphosphate]
Put plainly: NP40-soluble protein abundance relative to vehicle (solubility fold change) (ratio); higher = more soluble protein in presence of ATP. In a few lines: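 Eight concentrations, 0.1 to 10 mM, were tested on Jurkat crude lysate for 10 min at room temperature and then 3 min at 37 °C, in three independent experiments. The lysate was solubilised with 0.8% NP40 and benzonase, ultracentrifuged, and the supernatant TMT-labelled for LC-MS/MS. Each value is the fold change against the detergent-processed vehicle in its own replicate, from vsn-normalised intensities.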

± gives the standard deviation of the averaged measurements. This is a selection; strong and weak results do not stand in their true shares.

As for POFUT1 (UniProt Q9H488), the NP40-soluble protein abundance (concentration: 1mM) was determined as 1 ± 0.032; the NP40-soluble protein abundance (concentration: 2mM) came out at 0.983 ± 0.029; the NP40-soluble protein abundance (concentration: 4mM) amounted to 0.983 ± 0.021; the NP40-soluble protein abundance (concentration: 6mM) amounted to 0.949 ± 0.045; the NP40-soluble protein abundance (concentration: 8mM) amounted to 0.915 ± 0.016; the NP40-soluble protein abundance (concentration: 10mM) was 0.956 ± 0.014.

Turning to WDR12 (UniProt Q9GZL7), the NP40-soluble protein abundance (concentration: 1mM) was 1.03 ± 0.11; the NP40-soluble protein abundance (concentration: 2mM) turned out to be 1 ± 0.08; the NP40-soluble protein abundance (concentration: 4mM) was 0.985 ± 0.061; the NP40-soluble protein abundance (concentration: 6mM) was found to be 0.934 ± 0.12; the NP40-soluble protein abundance (concentration: 8mM) is 1 ± 0.059; the NP40-soluble protein abundance (concentration: 10mM) is 0.987 ± 0.024.

For the target MTIF3 (UniProt Q9H2K0), the NP40-soluble protein abundance (concentration: 1mM) is 1.1 ± 0.15; the NP40-soluble protein abundance (concentration: 2mM) was 1.06 ± 0.075; the NP40-soluble protein abundance (concentration: 4mM) was 1.15 ± 0.074; the NP40-soluble protein abundance (concentration: 6mM) stood at 1.13 ± 0.041; the NP40-soluble protein abundance (concentration: 8mM) turned out to be 1.16 ± 0.063; the NP40-soluble protein abundance (concentration: 10mM) came to 1.09 ± 0.14.

UniProt Q9H3N1: the NP40-soluble protein abundance was determined as 0.898 ± 0.054 (concentration: 1mM); 0.904 ± 0.054 (concentration: 2mM); 0.871 ± 0.025 (concentration: 4mM); 0.94 ± 0.015 (concentration: 6mM); 0.853 ± 0.049 (concentration: 8mM); 0.851 ± 0.037 (concentration: 10mM).

UniProt Q9H7P9 and related entries: the NP40-soluble protein abundance (concentration: 1mM) amounted to 0.96 ± 0.084; the NP40-soluble protein abundance (concentration: 2mM) turned out to be 0.982 ± 0.06; the NP40-soluble protein abundance (concentration: 4mM) amounted to 0.991 ± 0.051; the NP40-soluble protein abundance (concentration: 6mM) came to 1 ± 0.088; the NP40-soluble protein abundance (concentration: 8mM) was 0.944 ± 0.047; the NP40-soluble protein abundance (concentration: 10mM) turned out to be 0.966 ± 0.034.

Regarding XRN2 (UniProt Q9H0D6), the NP40-soluble protein abundance is, setting by setting: (concentration: 1mM) 0.984 ± 0.02; (concentration: 2mM) 0.983 ± 0.012; (concentration: 4mM) 0.9861 ± 0.0086; (concentration: 6mM) 0.999 ± 0.019; (concentration: 8mM) 1.016 ± 0.0053; (concentration: 10mM) 1.01 ± 0.016.

Take CARS2 (UniProt Q9HA77): the NP40-soluble protein abundance runs as follows: (concentration: 1mM) 0.97 ± 0.018; (concentration: 2mM) 0.984 ± 0.017; (concentration: 4mM) 0.955 ± 0.011; (concentration: 6mM) 0.93 ± 0.041; (concentration: 8mM) 0.954 ± 0.015; (concentration: 10mM) 0.95 ± 0.013.

As for NOL11 (UniProt Q9H8H0), the NP40-soluble protein abundance is 1.03 ± 0.11 (concentration: 1mM); 1.17 ± 0.069 (concentration: 2mM); 1.11 ± 0.016 (concentration: 4mM); 1.24 ± 0.048 (concentration: 6mM); 1.29 ± 0.084 (concentration: 8mM); 1.23 ± 0.21 (concentration: 10mM).

Consider KLC2 (UniProt Q9H0B6), for which the NP40-soluble protein abundance reads like this: (concentration: 1mM) 0.984 ± 0.037; (concentration: 2mM) 0.949 ± 0.02; (concentration: 4mM) 0.958 ± 0.016; (concentration: 6mM) 0.978 ± 0.039; (concentration: 8mM) 0.948 ± 0.039; (concentration: 10mM) 0.9276 ± 0.0072.

Regarding CBX8 (UniProt Q9HC52), the NP40-soluble protein abundance amounted to 1.09 ± 0.051 (concentration: 1mM); 1.14 ± 0.048 (concentration: 2mM); 1.26 ± 0.12 (concentration: 4mM); 1.34 ± 0.11 (concentration: 6mM); 1.43 ± 0.1 (concentration: 8mM); 1.65 ± 0.13 (concentration: 10mM).

With CPVL (UniProt Q9H3G5), the NP40-soluble protein abundance (concentration: 1mM) is 0.957 ± 0.065; the NP40-soluble protein abundance (concentration: 2mM) was determined as 0.967 ± 0.046; the NP40-soluble protein abundance (concentration: 4mM) turned out to be 0.955 ± 0.06; the NP40-soluble protein abundance (concentration: 6mM) came out at 0.94 ± 0.069; the NP40-soluble protein abundance (concentration: 8mM) amounted to 0.97 ± 0.026; the NP40-soluble protein abundance (concentration: 10mM) was 0.946 ± 0.03.

For TMEM165 (UniProt Q9HC07), the NP40-soluble protein abundance amounted to 0.961 ± 0.05 (concentration: 1mM); 0.973 ± 0.02 (concentration: 2mM); 0.96 ± 0.031 (concentration: 4mM); 1 ± 0.053 (concentration: 6mM); 0.993 ± 0.038 (concentration: 8mM); 0.94 ± 0.023 (concentration: 10mM).

On to UniProt Q9H8U3 and related entries, for which the NP40-soluble protein abundance (concentration: 1mM) turned out to be 0.932 ± 0.033; the NP40-soluble protein abundance (concentration: 2mM) was found to be 0.915 ± 0.04; the NP40-soluble protein abundance (concentration: 4mM) was found to be 0.944 ± 0.022; the NP40-soluble protein abundance (concentration: 6mM) was 0.967 ± 0.055; the NP40-soluble protein abundance (concentration: 8mM) came to 0.878 ± 0.049; the NP40-soluble protein abundance (concentration: 10mM) was 0.901 ± 0.057.

Take PNN (UniProt Q9H307): the NP40-soluble protein abundance (concentration: 1mM) was found to be 1.1 ± 0.15; the NP40-soluble protein abundance (concentration: 2mM) was 1.03 ± 0.23; the NP40-soluble protein abundance (concentration: 4mM) is 0.951 ± 0.19; the NP40-soluble protein abundance (concentration: 6mM) came out at 0.928 ± 0.25; the NP40-soluble protein abundance (concentration: 8mM) came to 0.753 ± 0.15; the NP40-soluble protein abundance (concentration: 10mM) turned out to be 0.819 ± 0.15.

On to ZWILCH (UniProt Q9H900), for which the NP40-soluble protein abundance runs as follows: (concentration: 1mM) 1.06 ± 0.16; (concentration: 2mM) 1.07 ± 0.082; (concentration: 4mM) 1.02 ± 0.15; (concentration: 6mM) 0.994 ± 0.11; (concentration: 8mM) 1.09 ± 0.1; (concentration: 10mM) 1.04 ± 0.074.

Turning to UniProt Q9C0F1, the NP40-soluble protein abundance (concentration: 1mM) was 0.931 ± 0.019; the NP40-soluble protein abundance (concentration: 2mM) was determined as 0.922 ± 0.023; the NP40-soluble protein abundance (concentration: 4mM) was found to be 0.96 ± 0.065; the NP40-soluble protein abundance (concentration: 6mM) came out at 1 ± 0.1; the NP40-soluble protein abundance (concentration: 8mM) is 0.951 ± 0.049; the NP40-soluble protein abundance (concentration: 10mM) was 0.928 ± 0.02.

As for COMMD4 (UniProt Q9H0A8), the NP40-soluble protein abundance by setting is: (concentration: 1mM) 0.96 ± 0.061; (concentration: 2mM) 0.967 ± 0.057; (concentration: 4mM) 0.911 ± 0.0095; (concentration: 6mM) 0.878 ± 0.067; (concentration: 8mM) 0.89 ± 0.039; (concentration: 10mM) 0.95 ± 0.014.

Consider PTGES2 (UniProt Q9H7Z7), for which the NP40-soluble protein abundance by setting is: (concentration: 1mM) 0.937 ± 0.09; (concentration: 2mM) 0.946 ± 0.064; (concentration: 4mM) 0.933 ± 0.064; (concentration: 6mM) 0.892 ± 0.1; (concentration: 8mM) 0.909 ± 0.034; (concentration: 10mM) 0.921 ± 0.043.

In the case of GRPEL1 (UniProt Q9HAV7), the NP40-soluble protein abundance is, setting by setting: (concentration: 1mM) 0.935 ± 0.086; (concentration: 2mM) 0.896 ± 0.047; (concentration: 4mM) 0.928 ± 0.039; (concentration: 6mM) 0.93 ± 0.045; (concentration: 8mM) 0.896 ± 0.035; (concentration: 10mM) 0.821 ± 0.067.

In the case of UniProt Q9HCE0 and related entries, the NP40-soluble protein abundance came to 1.04 ± 0.09 (concentration: 1mM); 0.953 ± 0.074 (concentration: 2mM); 1.06 ± 0.019 (concentration: 4mM); 0.984 ± 0.05 (concentration: 6mM); 1.02 ± 0.064 (concentration: 8mM); 0.986 ± 0.12 (concentration: 10mM).

In the case of UniProt Q9GZR1 and related entries, the NP40-soluble protein abundance reads like this: (concentration: 1mM) 0.916 ± 0.053; (concentration: 2mM) 0.917 ± 0.12; (concentration: 4mM) 0.908 ± 0.089; (concentration: 6mM) 0.957 ± 0.14; (concentration: 8mM) 0.911 ± 0.1; (concentration: 10mM) 0.997 ± 0.059.
